PubChem BioAssay AID1259308 – NCATS | 2017
This is an unselected part of about 59,000 deposited reagents. Over the whole deposit, about 1,510 (2.6%) got an active call. 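Calls use total luciferase alone and ignore viability, so some active siRNAs may act by altering cell number.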 A number with no mark means an inactive call. The numbers tell different reagents against one gene apart. Not all columns of the deposit are shown.

Screen: 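Knock-downs that increase output of a recombinant reporter protein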 (primary screen)
System: human HEK293 embryonic kidney cells stably expressing firefly luciferase (HEK-CMV-Luc2-Hygro)
Reagent: single siRNA against human genes, 0.8 pmol siRNA per well
Time to read-out: 72 h
Measurement: 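Reporter luminescence and viable-cell signal on separate replicate plates, given as percent of non-targeting control and median/MAD z-scores, plus per-cell luciferase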
Scale: total luciferase, z-score and total luciferase, % of control: higher = more reporter protein produced
Rule for the call: 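Active when the median/MAD z-score for overall luciferase is greater than 3; a gene was taken forward for validation with new siRNAs if at least two of its three siRNAs passed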
Meaning of the calls: active = raised luciferase; inactive = no rise

The first 3 entries as a preview:
target gene	reagent no.	total luciferase, z-score	total luciferase, % of control
TXNDC2	1	0.0962	83.8
TXNDC2	2	-0.123	79.4
TXNDC2	3	1.4	110

Main list, repeating the preview:
target gene	reagent no.	total luciferase, z-score	total luciferase, % of control
TXNDC2	1	0.0962	83.8
TXNDC2	2	-0.123	79.4
TXNDC2	3	1.4	110
GABRA4	1	-0.686	68.2
GABRA4	2	-0.992	62.2
GABRA4	3	-0.81	65.8
ZNF860	1	-1.14	59.1
ZNF860	2	1.38	109
ZNF860	3	-0.503	71.9
ZNF860	4	-2.8	26.1
ZNF860	5	-0.111	79.7
ZNF860	6	-0.355	74.8
NFX1	1	0.0271	82.4
NFX1	2	-0.0272	81.3
NFX1	3	-1.16	58.7
ZNF711	1	-1.49	52.3
ZNF711	2	0.492	91.7
ZNF711	3	0.789	97.6
DDOST	1	-1.39	54.3
DDOST	2	6.04 (active)	202
DDOST	3	1.73	116
CCM2	1	-0.384	74.3
CCM2	2	-1.11	59.9
CCM2	3	1.84	118
